Data as given in PMC12807465.
Numbering of substitutions follows the chain as printed. Results are given in words; binding and its absence hold for the method and conditions named. For some assays here: Binding seen in cells or lysates may run through a third protein. Some binding calls cover weakened binding; strength is not graded here. Tags and fused reporters may be left off the sequences shown.

Chains of the proteins cited; added tags and fusions are not shown. Residues count along the entry.
UniProt P30101, residues 25-505: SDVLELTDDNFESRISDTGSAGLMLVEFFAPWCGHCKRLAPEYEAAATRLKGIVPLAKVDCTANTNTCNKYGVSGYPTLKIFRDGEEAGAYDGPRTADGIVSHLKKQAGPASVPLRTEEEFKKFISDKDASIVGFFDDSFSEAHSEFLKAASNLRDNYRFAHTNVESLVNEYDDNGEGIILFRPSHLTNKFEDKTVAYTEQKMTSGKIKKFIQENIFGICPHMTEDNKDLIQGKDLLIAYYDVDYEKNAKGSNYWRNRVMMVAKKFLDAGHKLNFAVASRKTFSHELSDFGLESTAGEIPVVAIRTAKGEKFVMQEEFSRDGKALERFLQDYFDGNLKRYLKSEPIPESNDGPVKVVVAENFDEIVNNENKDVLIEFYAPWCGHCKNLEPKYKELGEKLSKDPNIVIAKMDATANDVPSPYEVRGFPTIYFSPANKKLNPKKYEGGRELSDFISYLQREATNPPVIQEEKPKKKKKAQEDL
UniProt P07237, residues 18-508: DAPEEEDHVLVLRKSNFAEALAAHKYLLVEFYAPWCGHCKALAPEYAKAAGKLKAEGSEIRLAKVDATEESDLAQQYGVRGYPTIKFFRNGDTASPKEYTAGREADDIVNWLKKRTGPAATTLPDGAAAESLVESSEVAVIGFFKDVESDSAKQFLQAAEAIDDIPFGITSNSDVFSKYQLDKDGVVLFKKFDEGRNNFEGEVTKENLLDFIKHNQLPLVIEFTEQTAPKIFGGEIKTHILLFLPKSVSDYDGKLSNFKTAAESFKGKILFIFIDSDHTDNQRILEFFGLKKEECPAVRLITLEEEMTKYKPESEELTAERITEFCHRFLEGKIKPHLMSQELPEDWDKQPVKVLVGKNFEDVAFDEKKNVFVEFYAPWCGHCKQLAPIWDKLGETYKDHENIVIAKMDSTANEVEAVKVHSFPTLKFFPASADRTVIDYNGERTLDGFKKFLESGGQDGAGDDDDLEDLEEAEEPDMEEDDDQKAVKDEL
UniProt P11021, residues 19-654: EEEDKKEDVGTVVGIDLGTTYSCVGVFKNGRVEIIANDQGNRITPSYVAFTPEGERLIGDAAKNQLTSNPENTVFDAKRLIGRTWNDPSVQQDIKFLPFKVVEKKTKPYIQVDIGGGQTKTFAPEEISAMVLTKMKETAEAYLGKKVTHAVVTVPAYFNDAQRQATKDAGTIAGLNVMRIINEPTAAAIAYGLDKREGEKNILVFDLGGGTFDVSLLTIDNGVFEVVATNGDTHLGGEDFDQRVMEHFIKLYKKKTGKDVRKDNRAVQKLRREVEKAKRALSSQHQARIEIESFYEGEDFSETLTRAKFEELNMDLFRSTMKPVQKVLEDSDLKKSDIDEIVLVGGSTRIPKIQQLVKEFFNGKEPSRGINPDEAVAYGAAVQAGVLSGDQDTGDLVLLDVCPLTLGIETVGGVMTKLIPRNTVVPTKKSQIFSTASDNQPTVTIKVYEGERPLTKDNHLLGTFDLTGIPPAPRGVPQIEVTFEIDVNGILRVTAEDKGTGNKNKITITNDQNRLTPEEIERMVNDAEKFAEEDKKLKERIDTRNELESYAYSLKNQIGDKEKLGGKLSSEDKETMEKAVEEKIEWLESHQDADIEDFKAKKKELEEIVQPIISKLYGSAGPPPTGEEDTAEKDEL

How the values were obtained:
[1] = molecular target: T1, Flag-tagged UGT2B17 (UDP glucuronosyltransferase family 2 member B17), full length, expressed in prostate cancer cells (UniProt O75795); experiment: co-IP; Figure 2C: Flag-tagged UGT2B17 or UGTm with proteins identified by MS; NETN buffer (1% NP-40, 1 mM EDTA, 50 mM Tris, 150 mM NaCl); immunoblot
T1 sequence: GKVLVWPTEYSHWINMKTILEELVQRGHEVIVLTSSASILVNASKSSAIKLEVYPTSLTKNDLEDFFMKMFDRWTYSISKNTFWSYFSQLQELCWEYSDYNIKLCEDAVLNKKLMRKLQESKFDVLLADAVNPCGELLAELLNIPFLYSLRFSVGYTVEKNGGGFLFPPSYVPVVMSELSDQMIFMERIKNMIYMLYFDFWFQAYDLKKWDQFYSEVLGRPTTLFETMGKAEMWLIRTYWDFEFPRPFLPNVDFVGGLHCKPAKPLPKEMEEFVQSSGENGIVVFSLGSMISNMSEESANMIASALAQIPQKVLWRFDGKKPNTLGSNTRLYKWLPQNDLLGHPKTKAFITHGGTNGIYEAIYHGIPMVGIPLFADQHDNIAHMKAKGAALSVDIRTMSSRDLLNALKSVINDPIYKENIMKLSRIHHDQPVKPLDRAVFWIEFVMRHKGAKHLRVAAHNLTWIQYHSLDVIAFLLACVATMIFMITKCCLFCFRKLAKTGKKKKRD

[2] = molecular target: T2, Flag-tagged UGT2B17 mutant UGTm (S121Y, N124S, I125N), expressed in cells (UniProt O75795); experiment: as above
T2 sequence: T1 sequence with S98Y, N101S, I102N

[3] = molecular target: T3, Purified Flag-tagged UGT2B17 (UniProt O75795); experiment: pull-down; protein pulldown assays of UGT2B17 or UGTm with PDIA3 and PDIA1, called direct (Supplemental Figure 6, D and E); both purified
T3 sequence: T1 sequence

[4] = molecular target: T4, Purified Flag-tagged UGTm (UGT2B17 S121Y, N124S, I125N) (UniProt O75795); experiment: as above
T4 sequence: T1 sequence with S98Y, N101S, I102N

[5] = molecular target: T1, Flag-tagged UGT2B17 (UDP glucuronosyltransferase family 2 member B17), full length, expressed in prostate cancer cells; experiment: co-IP; Figure 5G: LN95(KO) cells transfected with control, UGT2B17 or UGTm; co-IP of Flag-tag UGT2B17 and UGTm with PTPN1 and Src, immunoblot
[6] = molecular target: T2, Flag-tagged UGT2B17 mutant UGTm (S121Y, N124S, I125N), expressed in cells; experiment: as above

## PDIA3 (also known as ERP57), endogenous (from UniProt P30101 25-505)
[1]
  binding: binds
[2]
  binding: binds

## PDIA1 of the protein pulldown assay and the in vitro PDI activity assay (from UniProt P07237 18-508) (enzyme)
[3]
  binding: binds
[4]
  binding: binds

## PDIA3 of the protein pulldown assay (from UniProt P30101 25-505)
[3]
  binding: binds
[4]
  binding: binds

## BiP (from UniProt P11021 19-654)
[1]
  binding: binds
[2]
  binding: binds

B1: GANAB (protein, UniProt Q14697 29-944)
chain: ITLAVDRSNFKTCEESSFCKRQRSIRPGLSPYRALLDSLQLGPDSLTVHLIHEVTKVLLVLELQGLQKNMTRFRIDELEPRRPRYRVPDVLVADPPIARLSVSGRDENSVELTMAEGPYKIILTARPFRLDLLEDRSLLLSVNARGLLEFEHQRAPRVSQGSKDPAEGDGAQPEETPRDGDKPEETQGKAEKDEPGAWEETFKTHSDSKPYGPMSVGLDFSLPGMEHVYGIPEHADNLRLKVTEGGEPYRLYNLDVFQYELYNPMALYGSVPVLLAHNPHRDLGIFWLNAAETWVDISSNTAGKTLFGKMMDYLQGSGETPQTDVRWMSETGIIDVFLLLGPSISDVFRQYASLTGTQALPPLFSLGYHQSRWNYRDEADVLEVDQGFDDHNLPCDVIWLDIEHADGKRYFTWDPSRFPQPRTMLERLASKRRKLVAIVDPHIKVDSGYRVHEELRNLGLYVKTRDGSDYEGWCWPGSAGYPDFTNPTMRAWWANMFSYDNYEGSAPNLFVWNDMNEPSVFNGPEVTMLKDAQHYGGWEHRDVHNIYGLYVHMATADGLRQRSGGMERPFVLARAFFAGSQRFGAVWTGDNTAEWDHLKISIPMCLSLGLVGLSFCGADVGGFFKNPEPELLVRWYQMGAYQPFFRAHAHLDTGRREPWLLPSQHNDIIRDALGQRYSLLPFWYTLLYQAHREGIPVMRPLWVQYPQDVTTFNIDDQYLLGDALLVHPVSDSGAHGVQVYLPGQGEVWYDIQSYQKHHGPQTLYLPVTLSSIPVFQRGGTIVPRWMRVRRSSECMKDDPITLFVALSPQGTAQGELFLDDGHTFNYQTRQEFLLRRFSFSGNTLVSSSADPEGHFETPIWIERVVIIGAGKPAAVVLQTKGSPESRLSFQHDPETSVLVLRKPGINVASDWSIHLR
[1]
  binding: binds
[2]
  binding: binds

B2: ERP44 (protein, UniProt Q9BS26 30-406)
chain: EITSLDTENIDEILNNADVALVNFYADWCRFSQMLHPIFEEASDVIKEEFPNENQVVFARVDCDQHSDIAQRYRISKYPTLKLFRNGMMMKREYRGQRSVKALADYIRQQKSDPIQEIRDLAEITTLDRSKRNIIGYFEQKDSDNYRVFERVANILHDDCAFLSAFGDVSKPERYSGDNIIYKPPGHSAPDMVYLGAMTNFDVTYNWIQDKCVPLVREITFENGEELTEEGLPFLILFHMKEDTESLEIFQNEVARQLISEKGTINFLHADCDKFRHPLLHIQKTPADCPVIAIDSFRHMYVFGDFKDVLIPGKLKQFVFDLHSGKLHREFHHGPDPTDTAPGEQAQDVASSPPESSFQKLAPSEYRYTLLRDRDEL
[1]
  binding: binds
[2]
  binding: binds

B3: PTPN1, endogenous (enzyme, UniProt P18031 1-435)
chain: MEMEKEFEQIDKSGSWAAIYQDIRHEASDFPCRVAKLPKNKNRNRYRDVSPFDHSRIKLHQEDNDYINASLIKMEEAQRSYILTQGPLPNTCGHFWEMVWEQKSRGVVMLNRVMEKGSLKCAQYWPQKEEKEMIFEDTNLKLTLISEDIKSYYTVRQLELENLTTQETREILHFHYTTWPDFGVPESPASFLNFLFKVRESGSLSPEHGPVVVHCSAGIGRSGTFCLADTCLLLMDKRKDPSSVDIKKVLLEMRKFRMGLIQTADQLRFSYLAVIEGAKFIMGDSSVQDQWKELSHEDLEPPPEHIPPPPRPPKRILEPHNGKCREFFPNHQWVKEETQEDKDCPIKEEKGSPLNAAPYGIESMSQDTEVRSRVVGGSLRGAQAASPAKGEPSLPEKDEDHALSYWKPFLVNMCVATVLTAGAYLCYRFLFNSNT
[5]
  binding: binds
[6]
  binding: binds
